These are yes or no findings as the source states them, for the method shown. Some entries that bind do so weakly or less than the wild type. For some assays here: Sequences can lack the tags named with a protein.
T1: CAR on cells (CHO-CAR; epithelial CAR of T84 and Caco-2 cells) (human), P78310
T1 chain: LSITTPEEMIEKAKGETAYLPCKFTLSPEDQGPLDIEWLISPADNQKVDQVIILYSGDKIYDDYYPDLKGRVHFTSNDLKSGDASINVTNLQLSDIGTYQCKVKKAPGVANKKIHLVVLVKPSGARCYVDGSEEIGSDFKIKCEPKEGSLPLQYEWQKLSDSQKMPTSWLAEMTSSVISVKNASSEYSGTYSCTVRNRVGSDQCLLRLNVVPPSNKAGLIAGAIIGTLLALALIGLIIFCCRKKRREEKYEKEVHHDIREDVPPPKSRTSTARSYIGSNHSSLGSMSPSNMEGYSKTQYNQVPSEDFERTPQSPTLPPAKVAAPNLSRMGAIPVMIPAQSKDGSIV

T2: murine CAR (epithelial CAR of wounded mouse colon) (mouse) (UniProt P97792)
T2 sequence (looked up): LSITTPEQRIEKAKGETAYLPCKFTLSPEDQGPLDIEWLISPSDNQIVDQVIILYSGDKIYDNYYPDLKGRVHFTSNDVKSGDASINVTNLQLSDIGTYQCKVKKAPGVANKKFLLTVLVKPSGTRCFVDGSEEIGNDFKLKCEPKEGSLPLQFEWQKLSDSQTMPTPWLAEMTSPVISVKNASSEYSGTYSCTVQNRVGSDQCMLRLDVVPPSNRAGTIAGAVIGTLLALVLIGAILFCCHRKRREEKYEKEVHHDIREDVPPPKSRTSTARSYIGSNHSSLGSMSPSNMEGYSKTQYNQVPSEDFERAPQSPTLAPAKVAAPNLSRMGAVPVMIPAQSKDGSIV


Tests used:
[1] = target: T1, CAR on cells (CHO-CAR; epithelial CAR …); assay: aggregation of CHO-CAR cells alone; details: remark: other sources report otherwise
[2] = target: T2, murine CAR (epithelial CAR of wounded mouse colon) (mouse); assay: immunofluorescence of wounded mouse colon after I.P. dosing (colocalization of CAR and His tag)

Binder	binding [1]	binding [2]
CAR on cells (CHO-CAR; epithelial CAR of T84 and Caco-2 cells), P78310 20-365 (receptor, human, UniProt P78310 20-365, looked up) LSITTPEEMIEKAKGETAYLPCKFTLSPEDQGPLDIEWLISPADNQKVDQVIILYSGDKIYDDYYPDLKGRVHFTSNDLKSGDASINVTNLQLSDIGTYQCKVKKAPGVANKKIHLVVLVKPSGARCYVDGSEEIGSDFKIKCEPKEGSLPLQYEWQKLSDSQKMPTSWLAEMTSSVISVKNASSEYSGTYSCTVRNRVGSDQCLLRLNVVPPSNKAGLIAGAIIGTLLALALIGLIIFCCRKKRREEKYEKEVHHDIREDVPPPKSRTSTARSYIGSNHSSLGSMSPSNMEGYSKTQYNQVPSEDFERTPQSPTLPPAKVAAPNLSRMGAIPVMIPAQSKDGSIV	no binding	
adenoviral fiber knob protein Ad5, his-tagged (ligand) GAITVGNKNNDKLTLWTTPAPSPNCRLNAEKDAKLTLVLTKCGSQILATVSVLAVKGSLAPISGTVQSAHLIIRFDENGVLLNNSFLDPEYWNFRNGDLTEGTAYTNAVGFMPNLSAYPKSHGKTAKSNIVSQVYLNGDKTKPVTLTITLNGTQETGDTTPSAYSMSFSWDWSGHNYINEIFATSSYTFSYIAQE		binds

— US20140242068A1 (EMORY UNIVERSITY, published 2014)
